Reference: article PMC11003095

Protein sequences, listed by entry. Tags and fused reporters are not part of them. Residues count along the entry.
UniProt P35968, residues 20-1356: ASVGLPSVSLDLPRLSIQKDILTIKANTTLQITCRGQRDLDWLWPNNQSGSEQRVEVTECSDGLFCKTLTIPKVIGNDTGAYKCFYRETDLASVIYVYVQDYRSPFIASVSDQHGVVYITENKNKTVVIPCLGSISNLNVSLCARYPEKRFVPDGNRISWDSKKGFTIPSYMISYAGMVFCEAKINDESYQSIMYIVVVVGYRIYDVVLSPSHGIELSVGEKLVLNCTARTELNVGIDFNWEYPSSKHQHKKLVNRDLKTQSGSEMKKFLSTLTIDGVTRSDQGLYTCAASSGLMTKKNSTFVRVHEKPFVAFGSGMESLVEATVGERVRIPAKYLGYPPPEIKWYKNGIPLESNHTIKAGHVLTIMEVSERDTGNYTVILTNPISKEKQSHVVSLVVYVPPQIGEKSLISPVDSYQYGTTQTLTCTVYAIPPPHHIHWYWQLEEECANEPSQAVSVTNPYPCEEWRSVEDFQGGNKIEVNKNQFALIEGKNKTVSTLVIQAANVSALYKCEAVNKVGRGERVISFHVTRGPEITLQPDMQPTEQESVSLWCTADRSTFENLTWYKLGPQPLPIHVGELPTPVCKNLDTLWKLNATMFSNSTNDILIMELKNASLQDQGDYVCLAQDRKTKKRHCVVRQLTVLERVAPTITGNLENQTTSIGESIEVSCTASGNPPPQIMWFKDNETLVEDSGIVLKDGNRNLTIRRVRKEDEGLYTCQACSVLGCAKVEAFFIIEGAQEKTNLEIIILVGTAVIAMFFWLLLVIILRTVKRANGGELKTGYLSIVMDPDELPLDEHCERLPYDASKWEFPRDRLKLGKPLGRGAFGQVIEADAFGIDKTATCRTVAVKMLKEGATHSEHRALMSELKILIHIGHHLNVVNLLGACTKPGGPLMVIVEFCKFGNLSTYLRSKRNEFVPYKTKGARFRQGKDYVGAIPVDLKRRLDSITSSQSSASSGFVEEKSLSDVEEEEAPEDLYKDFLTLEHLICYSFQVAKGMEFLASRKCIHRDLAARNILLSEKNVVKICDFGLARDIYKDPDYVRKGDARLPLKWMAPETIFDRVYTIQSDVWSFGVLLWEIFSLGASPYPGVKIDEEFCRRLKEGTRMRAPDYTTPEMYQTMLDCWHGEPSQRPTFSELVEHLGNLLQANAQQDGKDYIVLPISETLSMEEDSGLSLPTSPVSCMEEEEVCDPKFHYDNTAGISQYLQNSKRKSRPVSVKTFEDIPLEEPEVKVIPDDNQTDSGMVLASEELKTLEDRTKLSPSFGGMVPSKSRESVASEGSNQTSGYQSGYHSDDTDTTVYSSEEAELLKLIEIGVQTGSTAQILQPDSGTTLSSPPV

T1: Double minute 4 protein (human (endogenous in placenta)) (UniProt O15151)
T1 sequence: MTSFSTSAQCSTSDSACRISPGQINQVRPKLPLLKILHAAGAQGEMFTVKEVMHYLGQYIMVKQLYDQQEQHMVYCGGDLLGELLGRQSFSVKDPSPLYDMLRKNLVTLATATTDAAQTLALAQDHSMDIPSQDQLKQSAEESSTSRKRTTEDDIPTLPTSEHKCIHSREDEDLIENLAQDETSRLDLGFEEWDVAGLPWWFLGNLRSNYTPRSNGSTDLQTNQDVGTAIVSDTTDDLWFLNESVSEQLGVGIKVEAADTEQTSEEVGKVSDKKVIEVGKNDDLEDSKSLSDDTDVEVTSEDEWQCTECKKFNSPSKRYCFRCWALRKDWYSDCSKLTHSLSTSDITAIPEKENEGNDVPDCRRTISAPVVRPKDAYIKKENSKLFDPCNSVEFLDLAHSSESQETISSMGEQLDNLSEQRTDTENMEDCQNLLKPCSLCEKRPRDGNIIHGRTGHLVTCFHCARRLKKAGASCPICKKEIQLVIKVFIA

T2: Phosphatidylinositol-binding clathrin assembly protein (human (endogenous in placenta)) (UniProt Q13492)
T2 sequence: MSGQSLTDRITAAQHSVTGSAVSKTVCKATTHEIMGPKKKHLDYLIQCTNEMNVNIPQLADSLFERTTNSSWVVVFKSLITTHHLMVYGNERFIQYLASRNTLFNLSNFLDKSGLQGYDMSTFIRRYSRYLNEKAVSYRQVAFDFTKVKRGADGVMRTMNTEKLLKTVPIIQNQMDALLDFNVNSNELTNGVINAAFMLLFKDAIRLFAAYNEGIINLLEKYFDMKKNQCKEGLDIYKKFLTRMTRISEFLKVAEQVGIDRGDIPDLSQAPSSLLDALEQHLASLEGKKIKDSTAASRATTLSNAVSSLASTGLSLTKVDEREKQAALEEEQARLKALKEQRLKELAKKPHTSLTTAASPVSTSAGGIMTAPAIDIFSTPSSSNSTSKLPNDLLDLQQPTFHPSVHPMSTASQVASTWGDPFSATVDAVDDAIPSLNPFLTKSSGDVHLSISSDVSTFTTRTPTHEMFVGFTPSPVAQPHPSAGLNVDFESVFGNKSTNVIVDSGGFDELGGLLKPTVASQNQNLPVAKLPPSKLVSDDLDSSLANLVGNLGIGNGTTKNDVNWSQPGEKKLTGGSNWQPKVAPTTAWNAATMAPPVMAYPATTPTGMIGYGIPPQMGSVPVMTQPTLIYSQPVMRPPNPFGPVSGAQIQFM


Columns and labels:
Assay in all cases: affinity purification with mass spectrometry; same immunoprecipitations from ASB-14 placental membrane extracts; eluates run on 4-12% Bis-Tris gels, strips from 25-220 kDa digested with Trypsin/Lys-C, LC-MS/MS, MaxQuant, 1% FDR
[1] = target: Vascular endothelial growth factor receptor 2 (human (endogenous in placenta)) (UniProt P35968)
[2] = target: T1, Double minute 4 protein (human (endogenous in placenta))
[3] = target: T2, Phosphatidylinositol-binding clathrin assembly protein (human (endogenous in placenta))

| binding [1] | binding [2] | binding [3] | Molecule |
| --- | --- | --- | --- |
| binds | – | – | Immunoglobulin heavy constant alpha 1 (from UniProt P01876-1) |
| – | binds | – | Phosphatidylinositol-binding clathrin assembly protein (protein, UniProt Q13492 1-652) MSGQSLTDRITAAQHSVTGSAVSKTVCKATTHEIMGPKKKHLDYLIQCTNEMNVNIPQLADSLFERTTNSSWVVVFKSLITTHHLMVYGNERFIQYLASRNTLFNLSNFLDKSGLQGYDMSTFIRRYSRYLNEKAVSYRQVAFDFTKVKRGADGVMRTMNTEKLLKTVPIIQNQMDALLDFNVNSNELTNGVINAAFMLLFKDAIRLFAAYNEGIINLLEKYFDMKKNQCKEGLDIYKKFLTRMTRISEFLKVAEQVGIDRGDIPDLSQAPSSLLDALEQHLASLEGKKIKDSTAASRATTLSNAVSSLASTGLSLTKVDEREKQAALEEEQARLKALKEQRLKELAKKPHTSLTTAASPVSTSAGGIMTAPAIDIFSTPSSSNSTSKLPNDLLDLQQPTFHPSVHPMSTASQVASTWGDPFSATVDAVDDAIPSLNPFLTKSSGDVHLSISSDVSTFTTRTPTHEMFVGFTPSPVAQPHPSAGLNVDFESVFGNKSTNVIVDSGGFDELGGLLKPTVASQNQNLPVAKLPPSKLVSDDLDSSLANLVGNLGIGNGTTKNDVNWSQPGEKKLTGGSNWQPKVAPTTAWNAATMAPPVMAYPATTPTGMIGYGIPPQMGSVPVMTQPTLIYSQPVMRPPNPFGPVSGAQIQFM |
| – | binds | binds | Protein-glutamine gamma-glutamyltransferase 2 (enzyme, UniProt P21980 1-687) MAEELVLERCDLELETNGRDHHTADLCREKLVVRRGQPFWLTLHFEGRNYEASVDSLTFSVVTGPAPSQEAGTKARFPLRDAVEEGDWTATVVDQQDCTLSLQLTTPANAPIGLYRLSLEASTGYQGSSFVLGHFILLFNAWCPADAVYLDSEEERQEYVLTQQGFIYQGSAKFIKNIPWNFGQFEDGILDICLILLDVNPKFLKNAGRDCSRRSSPVYVGRVVSGMVNCNDDQGVLLGRWDNNYGDGVSPMSWIGSVDILRRWKNHGCQRVKYGQCWVFAAVACTVLRCLGIPTRVVTNYNSAHDQNSNLLIEYFRNEFGEIQGDKSEMIWNFHCWVESWMTRPDLQPGYEGWQALDPTPQEKSEGTYCCGPVPVRAIKEGDLSTKYDAPFVFAEVNADVVDWIQQDDGSVHKSINRSLIVGLKISTKSVGRDEREDITHTYKYPEGSSEEREAFTRANHLNKLAEKEETGMAMRIRVGQSMNMGSDFDVFAHITNNTAEEYVCRLLLCARTVSYNGILGPECGTKYLLNLNLEPFSEKSVPLCILYEKYRDCLTESNLIKVRALLVEPVINSYLLAERDLYLENPEIKIRILGEPKQKRKLVAEVSLQNPLPVALEGCTFTVEGAGLTEEQKTVEIPDPVEAGEEVKVRMDLLPLHMGLHKLVVNFESDKLKAVKGFRNVIIGPA |
| – | binds | – | arginase-1 (enzyme, UniProt P05089 1-322) MSAKSRTIGIIGAPFSKGQPRGGVEEGPTVLRKAGLLEKLKEQECDVKDYGDLPFADIPNDSPFQIVKNPRSVGKASEQLAGKVAEVKKNGRISLVLGGDHSLAIGSISGHARVHPDLGVIWVDAHTDINTPLTTTSGNLHGQPVSFLLKELKGKIPDVPGFSWVTPCISAKDIVYIGLRDVDPGEHYILKTLGIKYFSMTEVDRLGIGKVMEETLSYLLGRKKRPIHLSFDVDGLDPSFTPATGTPVVGGLTYREGLYITEEIYKTGLLSGLDIMEVNPSLGKTPEEVTRTVNTAVAITLACFGLAREGNHKPIDYLNPPK |
| binds | – | – | PDC-E2, the E2 component of pyruvate dehydrogenase (enzyme, UniProt P10515 87-647) SLPPHQKVPLPSLSPTMQAGTIARWEKKEGDKINEGDLIAEVETDKATVGFESLEECYMAKILVAEGTRDVPIGAIICITVGKPEDIEAFKNYTLDSSAAPTPQAAPAPTPAATASPPTPSAQAPGSSYPPHMQVLLPALSPTMTMGTVQRWEKKVGEKLSEGDLLAEIETDKATIGFEVQEEGYLAKILVPEGTRDVPLGTPLCIIVEKEADISAFADYRPTEVTDLKPQVPPPTPPPVAAVPPTPQPLAPTPSAPCPATPAGPKGRVFVSPLAKKLAVEKGIDLTQVKGTGPDGRITKKDIDSFVPSKVAPAPAAVVPPTGPGMAPVPTGVFTDIPISNIRRVIAQRLMQSKQTIPHYYLSIDVNMGEVLLVRKELNKILEGRSKISVNDFIIKASALACLKVPEANSSWMDTVIRQNHVVDVSVAVSTPAGLITPIVFNAHIKGVETIANDVVSLATKAREGKLQPHEFQGGTFTISNLGMFGIKNFSAIINPPQACILAIGASEDKLVPADNEKGFDVASMMSVTLSCDHRVVDGAVGAQWLAEFRKYLEKPITMLL |

These are yes or no findings as the source states them, for the method shown. In cells and extracts the contact can be indirect. Here binding means that the protein was enriched with, or labelled near, the bait; the list need not be complete.
